Test results from patent publication US20240165096A1, “Anti Viral Therapy” (priority 2021, published 2024).
Some of these results come from one statement about several compounds together.

What was measured:
[1] = test system: SARS-COV-2; assay type: cell-based
[2] = test system: SARS-COV-2 NSP12 RNA; assay: RT-qPCR of viral NSP12 RNA in infected Calu3 cells; assay type: cell-based

| Structure (SMILES) | reduction in virus titres compared to the DMSO control [1] | reduction of viral NSP12 RNA levels ([2]; 1 μM) [%] | reduction of viral NSP12 RNA levels ([2]; 25 μM) [%] |
| --- | --- | --- | --- |
| CCC(CC)COC(=O)[C@H](C)N[P@](=O)(OC[C@H]1O[C@@](C#N)(c2ccc3c(N)ncnn23)[C@H](O)[C@@H]1O)Oc1ccccc1 [Remdesivir] | at least 10^2 PFU/mL | > 95 | – |
| CN1CCC(=C2c3ccccc3CCc3cccnc32)CC1 [Azatadine] | at least 10^2 PFU/mL | – | > 95 |
